Assay results as given in publication PMC4410478, “Larvicidal activity and possible mode of action of four flavonoids and two fatty acids identified in Millettia pinnata seed toward three mosquito species” (Parasites & Vectors, 2015).

Key:
Experiment in all cases: direct-contact mortality bioassay
Conditions in all cases: probit slope, 24 h exposure
[1] = test system: third instar Culex pipiens pallens larvae
[2] = test system: third instar Aedes aegypti larvae
[3] = test system: third instar larvae from wild Aedes albopictus

Row | Compound | Slope ± SE [1] | Slope ± SE [2] | Slope ± SE [3]
1 | COc1c(-c2ccccc2)oc2c(ccc3occc32)c1=O [Karanjin (1), karanjin] | 2.2 ± 0.30 | 2.2 ± 0.26 | 3.1 ± 0.41
2 | CCCCCCCC/C=C/CCCCCCCC(=O)O [Elaidic acid, elaidic acid] | 3.9 ± 0.42 | 3.8 ± 0.44 | 3.1 ± 0.43
3 | COc1c(-c2ccccc2)oc2c3c(ccc2c1=O)OC(C)(C)C=C3 [Karanjachromene (2), karanjachromene] | 3.3 ± 0.42 | 2.9 ± 0.40 | 2.7 ± 0.41
4 | CC/C=C\C/C=C\C/C=C\CCCCCCCC(=O)O [Linolenic acid, linolenic acid] | 2.3 ± 0.30 | 2.4 ± 0.31 | 2.9 ± 0.78
5 | pongamol [Pongamol (5)] | 2.6 ± 0.33 | 2.7 ± 0.34 | 2.8 ± 0.33
6 | CCCCCCCCCCCCCCCC(=O)O [Palmitic acid (4), palmitic acid] | 3.6 ± 0.48 | 4.6 ± 0.62 | 4.5 ± 0.63
7 | CCCCCCCCCCCCCCCCCCCCCC(=O)O [Behenic acid, behenic acid] | 6.5 ± 0.84 | 6.1 ± 1.20 | 4.9 ± 0.59
8 | CCCCCCCC/C=C\CCCCCCCC(=O)O [Oleic acid (3), oleic acid] | 3.2 ± 0.41 | 3.0 ± 0.40 | 3.2 ± 0.41
9 | CCCCC/C=C\C/C=C\CCCCCCCC(=O)O [Linoleic acid, linoleic acid] | 2.2 ± 0.29 | 2.1 ± 0.29 | 3.0 ± 0.78
10 | CCCCCCCCCCCCCCCCCCCC(=O)O [Arachidic acid, arachidic acid] | 3.9 ± 0.45 | 3.8 ± 0.45 | 3.5 ± 0.38
11 | COP(=S)(OC)Oc1ccc(SC)c(C)c1 [Fenthion, fenthion, reference compound] | 3.5 ± 0.44 | 3.6 ± 0.43 | 1.5 ± 0.29
12 | COP(=S)(OC)Oc1ccc(Sc2ccc(OP(=S)(OC)OC)cc2)cc1 [Temephos, temephos, reference compound] | 2.0 ± 0.30 | 2.6 ± 0.32 | 4.1 ± 0.46
13 | O=c1c2c(oc3c1ccc1occc13)COc1ccccc1-2 [Pongarotene (6), pongarotene] | 2.6 ± 0.34 | 3.6 ± 0.44 | 3.1 ± 0.43
